Experimental data taken from patent US20250344731A1, “SALTY TASTE/UMAMI ENHANCER” (AJINOMOTO CO., INC., priority 2023, published 2025).

Assays:
[1] = Sensory evaluation of saltiness enhancement function, naringenin/naringin added to NaCl aqueous solution (Example 1)
Protocol: As shown in Table 1: NaCl aqueous solution (weight g/100 g), various NaCl aqueous solutions (saline solutions) were prepared. Filtered water at ordinary temperature was used for preparation. Water, naringenin (Penta Manufacturing), or naringin (IKEDA CORPORATION) were weighed and added to the prepared 0.8% aqueous solution at various concentrations shown in Table 2: Prepared sensory evaluation samples. The saltiness intensity of each sample was blindly evaluated using a scoring system in 0.1 point increments, with the saltiness intensity of NC in test plot 1 as 1.00 point and the saltiness intensity of PC in test plot 2 as 5.5 points. The evaluation was performed by a trained panel of three, and the average score of each panel was used. Samples with a saltiness intensity of 1.8 points or more (NaCl 0.84% or more) due to the addition were evaluated to “have a saltiness enhancement function”. In addition, the presence or absence, and intensity of off-taste (bitterness and harsh taste other than saltiness) were also evaluated. The evaluation results are shown in Table 3: Sensory evaluation (saltiness intensity).

[2] = Sensory evaluation of umami enhancement function, naringenin/naringin added to sodium glutamate umami solution or water (Example 2)
Protocol: As shown in Table 4: Umami solution (weight g/100 g), an umami solution was prepared. Water at ordinary temperature was used for preparation. Water, naringenin (Penta manufacturing) or naringin (IKEDA CORPORATION) were weighed and added to each of the prepared umami solutions or water at various concentrations shown in Table 5: Prepared sensory evaluation samples. The umami intensity of each sample was blindly evaluated using a scoring system in 0.01 point increments, with the umami intensity of water in test plot 1 as 0 point, the umami intensity of NC in test plot 3 as 0.30 points, and the umami intensity of NC2 in test plot 4 as 0.10 point. The evaluation was performed by a trained panel of three, and the average score of each panel was used. Samples whose umami intensity was enhanced by 1.5 times or more (sodium glutamate 0.45 points or more, sodium aspartate 0.15 points or more) due to the addition were evaluated to “have an umami enhancement function”. In addition, the presence or absence, and intensity of off-taste (bitterness and harsh taste other than umami) were also evaluated. The evaluation results are shown in Table 6: Sensory evaluation (umami intensity).

[3] = Taste of naringenin itself (description); conditions: at about 1000 weight ppm
[4] = Sensory evaluation of saltiness enhancement function, naringenin-related flavonoid components in NaCl aqueous solution (Example 3); conditions: 30 ppm in NC salt water (NaCl 0.8%)
Text: 1) The following flavonoid components were used as naringenin-related flavonoid components: • Luteolin (manufactured by Salus Nutra Inc.), pinocembrin (manufactured by Xi'an Demeter Biotech Co., Ltd.), liquiritigenin (manufactured by Xi'an Julong Import and Export Co., Ltd.), apigenin (manufactured by Xi'an Best Bio-Tech Co., Ltd.), and acacetin (manufactured by Xi'an Reain Biotechnology Co., Ltd.)
2) The following compound was used as control component: Quercetin (manufactured by Medience Corporation) (structure shown below)
As shown in Table 7: NaCl aqueous solution (weight g/100 g), various NaCl aqueous solutions (saline solutions) were prepared. Water at ordinary temperature was used for preparation.
Each naringenin-related flavonoid component dissolved in propylene glycol (SIGMA) at 10000 ppm was added to the prepared 0.8% salt water solution such that the concentration at the time of eating (corresponding to the content of the present flavonoid component or a salt thereof in the oral ingestion product at the time of oral ingestion, as a flavonoid component relative to the oral ingestion product) was 30 ppm (Table 8).
The saltiness intensity of each sample was blindly evaluated using a scoring system in 0.5 point increments, with the saltiness intensity of NC in test plot 1 as 1.0 point, the saltiness intensity of PC1 as 2.0 points, and the saltiness intensity of PC2 as 3.0 points. The evaluation was performed by a trained panel of three, and the average score was used. Since the saltiness intensity of 2.0 points of PC1 is evaluated to be clearly stronger in saltiness than NC, samples with a saltiness intensity of 1.5 points or more (NaCl 0.85% or more) were evaluated to have a saltiness enhancement function. In addition, the presence or absence, and intensity of off-taste (bitterness and harsh taste other than saltiness) were also evaluated. The evaluation results are shown in Table 9: Sensory evaluation (saltiness intensity).

[5] = Sensory evaluation of umami enhancement function, naringenin-related flavonoid components in umami solution (Example 4); conditions: 30 ppm in NC (sodium glutamate 0.1%)
Protocol: • 1) The five naringenin-related flavonoid components evaluated in Example 3 were used. • 2) Quercetin was used as the control component. Umami solutions were prepared as shown in Table 10: Umami solution (weight g/100 g). Water at ordinary temperature was used for preparation. Each naringenin-related flavonoid component and the like dissolved in propylene glycol (SIGMA) at 10000 ppm was added to the prepared 0.1% umami aqueous solution such that the concentration at the time of eating was 30 ppm (Table 11). The umami intensity of each sample was blindly evaluated using a scoring system in 0.05 point increments, with the umami intensity of water in test plot 1 as 0 point and the umami intensity of NC in test plot 2 as 0.30 points. The evaluation was performed by a trained panel of three, and the average score was used. The umami enhancement function of samples whose umami intensity was enhanced by 1.5 times or more (sodium glutamate 0.45 points or more) due to the addition was evaluated to be functional. In addition, the presence or absence, and intensity of off-taste (bitterness and harsh taste other than umami) were also evaluated. The evaluation results are shown in Table 12: Sensory evaluation (umami intensity).

[6] = addition of 1 ppm or more to salt water
[7] = addition to umami solution (sodium glutamate, sodium aspartate), 30 ppm

SMILES: O=C1C[C@@H](c2ccc(O)cc2)Oc2cc(O)cc(O)c21 (stereo in doubt) [Naringenin, 5,7-dihydroxy-2-(4-hydroxyphenyl)chroman-4-one]
- off-taste ([1]; 1 ppm added to NC salt water (NaCl 0.8%)): none
- off-taste ([1]; 5 ppm added to NC salt water (NaCl 0.8%)): none
- off-taste ([1]; 10 ppm added to NC salt water (NaCl 0.8%)): none
- off-taste ([1]; 30 ppm added to NC salt water (NaCl 0.8%)): none
- off-taste ([1]; 30 ppm added to water (NaCl 0%)): none
- off-taste [1, 6]: without imparting an off-taste
- off-taste ([2]; 30 ppm added to NC1 (MSG, sodium glutamate 0.1%)): none
- off-taste ([2]; 30 ppm added to water): none
- off-taste [2, 7]: without imparting an off-taste
- bitterness [3]: no bitterness
- taste [3]: slightly sweet

SMILES: COc1ccc(-c2cc(=O)c3c(O)cc(O)cc3o2)cc1 [Acacetin, 5,7-dihydroxy-4-methoxyflavone]
- off-taste [4]: none
- off-taste [5]: none

SMILES: O=c1cc(-c2ccc(O)cc2)oc2cc(O)cc(O)c12 [Apigenin, 5,7-dihydroxy-2-(4-hydroxyphenyl)-4H-1-benzopyran-4-one]
- off-taste [4]: none
- off-taste [5]: none

SMILES: O=C1C[C@@H](c2ccc(O)cc2)Oc2cc(O)ccc21 [Liquiritigenin, (2S)-4′,7-dihydroxyflavan-4-one]
- off-taste [4]: none
- off-taste [5]: none

SMILES: O=c1cc(-c2ccc(O)c(O)c2)oc2cc(O)cc(O)c12 [Luteolin, 2-(3,4-dihydroxyphenyl)-5,7-dihydroxy-4-chromenone]
- off-taste [4]: none
- off-taste [5]: none

SMILES: C[C@@H]1O[C@@H](O[C@H]2[C@H](Oc3cc(O)c4c(c3)O[C@H](c3ccc(O)cc3)CC4=O)O[C@H](CO)[C@@H](O)[C@@H]2O)[C@H](O)[C@H](O)[C@H]1O [Naringin, naringin, reference compound]
- off-taste [1, 6]: an unpleasant bitterness was simultaneously imparted
- off-taste [2, 7]: imparted a bitter taste

SMILES: O=C1CC(c2ccccc2)Oc2cc(O)cc(O)c21 (stereo not shown) [Pinocembrin, 5,7-dihydroxy-2-phenyl-2,3-dihydro-4H-chromene-4-one]
- off-taste [4]: none
- off-taste [5]: none

SMILES: O=c1c(O)c(-c2ccc(O)c(O)c2)oc2cc(O)cc(O)c12 [Quercetin, reference compound]
- off-taste [4]: bitter
- off-taste [5]: bitter
